Experimental findings from PubChem BioAssay AID318 (DTP/NCI, 2004) are described below.

Molecules are shown by their SMILES. The list is a part of this screen's results and no random one: it gathers tests that were run many times, whatever their T/C, doses with no T/C, and many T/C values between a quarter and a half above the control. Further doses and runs are listed elsewhere. T/C: endpoint of the treated group in % of that of the vehicle group. Some entries give survivors of the animals treated and no T/C: the source holds a T/C of zero for them, seemingly a mark for toxic or unscored doses. Some survivor counts are full or nearly so, which does not show that the dose was tolerated: the source hardly ever lists a survival T/C far under the control, and the zero likely stands for such cases as well. Counts of survivors are from the toxicity check (mostly the fifth day) where no day follows; animals may have died later. Schedules are NCI's codes, read here as Q, the interval in days (D) or hours (H), X, the number of doses. Some entries were tested several times; the results are listed from low to high. For survival time, the PubChem record calls one and a half times the control and up active, and a quarter to a half above the control has no call in these data; cut-offs in other NCI protocols can differ. Counts like (3×) say how often a value occurs here. Some T/C values carry the count of animals alive at the toxicity check (mostly the fifth day); without a count, all were alive then.

This test deals with BDF1 mice, P815 leukemia ip, survival T/C. The test is described as follows: NCI In Vivo Anticancer Drug Screen. Data for tumor model P815 Mast Cell Leukemia (Ascitic) (intraperitoneal) in B6D2F1 (BDF1) mice. The settings on record: higher T/C = longer survival. On the procedure: The antitumor activity of compounds was measured in mice bearing transplantable tumors. Survival or tumor size were measured and the results are expressed as the measurement made in the treated group (T) divided by the measurement made in the vehicle treated control group (C). The tumor model used in this assay is P815 Mast Cell Leukemia (Ascitic) (intraperitoneal) in B6D2F1 (BDF1) mice

[1] abbreviates: T/C endpoint: survival time, mean or median, dose: 8.0 mg/kg/injection, schedule: Q01DX010 (ip), vehicle: saline.
[2] abbreviates: T/C endpoint: survival time, mean or median, dose: 16.0 mg/kg/injection, schedule: Q01DX010 (ip), vehicle: saline.
The mark [3] stands for this setting: T/C endpoint: survival time, mean or median, dose: 40.0 mg/kg/injection, schedule: Q01DX010 (ip), vehicle: saline.
The mark [4] stands for this setting: T/C endpoint: survival time, mean or median, dose: 5.0 mg/kg/injection, schedule: Q01DX010 (ip), vehicle: saline.
Where [5] appears, read: T/C endpoint: survival time, mean or median, dose: 20.0 mg/kg/injection, schedule: Q01DX010 (ip), vehicle: saline.
[6] abbreviates: T/C endpoint: survival time, mean or median, dose: 0.5 mg/kg/injection, schedule: Q01DX010 (ip), vehicle: saline.
[7] abbreviates: T/C endpoint: survival time, mean or median, dose: 25.0 mg/kg/injection, schedule: Q01DX010 (ip), vehicle: saline.
[8] abbreviates: T/C endpoint: survival time, mean or median, dose: 4.0 mg/kg/injection, schedule: Q01DX010 (ip), vehicle: saline.
Setting [9] is: T/C endpoint: survival time, mean or median, dose: 32.0 mg/kg/injection, schedule: Q01DX010 (ip), vehicle: other.

Turning to `O=C(Nc1ccc(C2=NCCN2)cc1)c1cccc(C(=O)Nc2ccc(C3=NCCN3)cc2)c1`, the T/C is 125 % of control under setting [1]; 126 and 141 % of control under setting [2].
`CSc1ncnc2nc[nH]c12`: the survivor count (T/C endpoint: survival time, mean or median, dose: 400.0 mg/kg/injection, schedule: Q01DX010 (ip), vehicle: saline) is 4 of 6.
For `O=C(O)CC(NC(=O)CP(=O)(O)O)C(=O)O` (centres undefined), the survivor count (T/C endpoint: median survival time, dose: 800.0 mg/kg/injection, schedule: Q04DX003 (ip), vehicle: saline) is given as 8 of 8.
With `Cn1c(N)nc2nc[nH]c2c1=S`, under setting [3], the T/C was 133 % of control.
Still for that read-out and setting: to `C[C@@H]1C[C@@H]([C@H](O)CC2CC(=O)NC(=O)C2)C(=O)[C@@H](C)C1` belongs 131 % of control.
Consider `CC[n+]1c(-c2ccccc2)c2cc(N)ccc2c2ccc(N)cc21`, for which the T/C by setting is: (T/C endpoint: survival time, mean or median, dose: 0.5 mg/kg/injection, schedule: Q01DX015 (ip), vehicle: saline) 132 % of control; (T/C endpoint: survival time, mean or median, dose: 1.0 mg/kg/injection, schedule: Q01DX015 (ip), vehicle: saline) 141 % of control. Also, the survivor count runs as follows: (T/C endpoint: survival time, mean or median, dose: 20.0 mg/kg/injection, schedule: Q01DX015 (ip), vehicle: saline) 10 of 10; (T/C endpoint: survival time, mean or median, dose: 40.0 mg/kg/injection, schedule: Q01DX015 (ip), vehicle: saline) 10 of 10.
As to `S=P(N1CCOCC1)(N1CC1)N1CC1`, the T/C was 105, 107, 111 % of control (2×) under setting [4]; 110, 115, 116 % of control (2×) (T/C endpoint: survival time, mean or median, dose: 10.0 mg/kg/injection, schedule: Q01DX010 (ip), vehicle: saline); 138, 144, 168 % of control under setting [5]. For the same compound, the survivor count under setting [5] is reported as 6 of 6.
On to `C1CN1c1nc(N2CC2)nc(N2CC2)n1`, for which the T/C under setting [6] is 127 % of control and the T/C (T/C endpoint: survival time, mean or median, dose: 500.0 micrograms/kg/injection, schedule: Q01DX010 (ip), vehicle: saline) was 144 % of control. The survivor count (T/C endpoint: survival time, mean or median, dose: 1.0 mg/kg/injection, schedule: Q01DX010 (ip), vehicle: saline) was 6 of 6.
With `CS(=O)(=O)OCCC(=O)N1CCN(C(=O)CCOS(C)(=O)=O)CC1`, the T/C (T/C endpoint: survival time, mean or median, dose: 12.5 mg/kg/injection, schedule: Q01DX010 (ip), vehicle: saline) is 144 % of control and the T/C under setting [7] is 130 % of control.
On to `CC(CCC(C)OS(C)(=O)=O)OS(C)(=O)=O` (centres undefined), for which, under setting [2], the T/C was 127 % of control. Besides, the survivor count (T/C endpoint: survival time, mean or median, dose: 32.0 mg/kg/injection, schedule: Q01DX010 (ip), vehicle: saline) is listed as 6 of 6.
Take `O=C1C(NC(=O)C2CCCCC2)=C(N2CC2)C(=O)C(NC(=O)C2CCCCC2)=C1N1CC1`: the survivor count is listed as 6 of 6 under setting [7] and 6 of 6 (T/C endpoint: survival time, mean or median, dose: 200.0 mg/kg/injection, schedule: Q01DX010 (ip), vehicle: saline).
On to `CS(=O)(=O)OCCCl`, for which, for the setting “T/C endpoint: survival time, mean or median, dose: 150.0 mg/kg/injection, schedule: Q01DX010 (ip), vehicle: saline”, the survivor count is 3 of 6 and 5 of 6.
As for `CS(=O)(=O)OCCN(CCOS(C)(=O)=O)c1ccc(N=O)cc1`, the T/C reads like this: under setting [6], 144 % of control; (T/C endpoint: survival time, mean or median, dose: 2.0 mg/kg/injection, schedule: Q01DX010 (ip), vehicle: saline) 133 % of control. Also, the survivor count runs as follows: under setting [8], 0 of 6; under setting [1], 6 of 6; under setting [2], 0 of 6.
As to `CN=C(NC)c1ccc(NC(=O)c2ccc(C(=O)Nc3ccc(C(=NC)NC)cc3)c(Cl)c2)cc1`, the survivor count is, setting by setting: under setting [3], 6 of 6; (T/C endpoint: survival time, mean or median, dose: 60.0 mg/kg/injection, schedule: Q01DX010 (ip), vehicle: saline) 4 of 6.
On to `Nc1nc2n[nH]nc2c(=O)[nH]1`, for which the T/C (T/C endpoint: survival time, mean or median, dose: 25.0 mg/kg/injection, schedule: Q01DX010 (ip), vehicle: alkali diluted with saline) is 144 % of control; the T/C (T/C endpoint: survival time, mean or median, dose: 50.0 mg/kg/injection, schedule: Q01DX010 (ip), vehicle: alkali diluted with saline) is 144 % of control; the T/C (T/C endpoint: survival time, mean or median, dose: 100.0 mg/kg/injection, schedule: Q01DX010 (ip), vehicle: alkali diluted with saline) was 133 % of control; the T/C (T/C endpoint: survival time, mean or median, dose: 200.0 mg/kg/injection, schedule: Q01DX010 (ip), vehicle: alkali diluted with saline) was 138 % of control.
On to `O=C(Nc1ccc(C2=NCCN2)cc1)c1ccc(C(=O)Nc2ccc(C3=NCCN3)cc2)c([N+](=O)[O-])c1`, for which the T/C runs as follows: (T/C endpoint: survival time, mean or median, dose: 6.0 mg/kg/injection, schedule: Q01DX010 (ip), vehicle: saline) 141 % of control; under setting [1], 136 % of control. Further, the survivor count (T/C endpoint: survival time, mean or median, dose: 12.0 mg/kg/injection, schedule: Q01DX010 (ip), vehicle: saline) is recorded as 5 of 6; the survivor count (T/C endpoint: survival time, mean or median, dose: 18.0 mg/kg/injection, schedule: Q01DX010 (ip), vehicle: saline) was 5 of 6 and 6 of 6.
As for `C=CC(CN1CC1)OC(C)=O` (centres undefined), the survivor count under setting [2] is on record as 5 of 6.
Regarding `O=C(Nc1ccc(C2=NCCN2)cc1)c1ccc(C(=O)Nc2ccc(C3=NCCN3)cc2)c(Cl)c1`, the T/C runs as follows: (T/C endpoint: survival time, mean or median, dose: 2.0 mg/kg/injection, schedule: Q01DX010 (ip), vehicle: other) 110 (2×), 111, 120 % of control; (T/C endpoint: survival time, mean or median, dose: 3.0 mg/kg/injection, schedule: Q01DX015 (ip), vehicle: carboxymethylcellulose (CMC)) 133 % of control [9 of 10 alive]; (T/C endpoint: survival time, mean or median, dose: 4.0 mg/kg/injection, schedule: Q01DX010 (ip), vehicle: other) 116, 126, 127, 131 % of control; (T/C endpoint: survival time, mean or median, dose: 8.0 mg/kg/injection, schedule: Q01DX010 (ip), vehicle: other) 163, 194, 202, 300 % of control; (T/C endpoint: survival time, mean or median, dose: 16.0 mg/kg/injection, schedule: Q01DX010 (ip), vehicle: other) 250, 300 (2×), 308 % of control; under setting [9], 102 and 219 % of control. Also, under setting [9], the survivor count is 6 of 6.
Take `O=C(O)c1[nH]c(=O)[nH]c(=O)c1F`: under “T/C endpoint: survival time, mean or median, dose: 6.0 mg/kg/injection, schedule: Q01DX015 (ip), vehicle: carboxymethylcellulose (CMC)”, the T/C is 132 % of control. Moreover, the survivor count is on record as 10 of 10 (T/C endpoint: survival time, mean or median, dose: 25.0 mg/kg/injection, schedule: Q01DX015 (ip), vehicle: carboxymethylcellulose (CMC)) and 10 of 10 (T/C endpoint: survival time, mean or median, dose: 50.0 mg/kg/injection, schedule: Q01DX015 (ip), vehicle: carboxymethylcellulose (CMC)).
As for `Nc1nc(=S)c2ncn(C3OC(CO)C(O)C3O)c2[nH]1` (centres undefined), the T/C reads like this: under setting [8], 144 % of control; under setting [1], 144 % of control; under setting [2], 133 % of control.
As for `C=CCSc1nc(N)nc2nc[nH]c12`, the survivor count is 7 of 10 (T/C endpoint: survival time, mean or median, dose: 125.0 mg/kg/injection, schedule: Q01DX015 (ip), vehicle: other); 8 of 10 (T/C endpoint: survival time, mean or median, dose: 150.0 mg/kg/injection, schedule: Q01DX015 (ip), vehicle: other); 5 of 10 (T/C endpoint: survival time, mean or median, dose: 200.0 mg/kg/injection, schedule: Q01DX015 (ip), vehicle: other).
For the compound `CN(C)/N=N/c1nc[nH]c1C(N)=O`, the T/C was 145 % of control (T/C endpoint: survival time, mean or median, dose: 100.0 mg/kg/injection, schedule: Q01DX015 (ip), vehicle: carboxymethylcellulose (CMC)) and 129 % of control (T/C endpoint: survival time, mean or median, dose: 125.0 mg/kg/injection, schedule: Q01DX015 (ip), vehicle: carboxymethylcellulose (CMC)).
Consider `O=c1[nH]cc(F)c(=O)[nH]1`, for which the T/C was 140 % of control (T/C endpoint: median survival time, dose: 28.8 mg/kg/injection, schedule: Q04DX003 (ip), vehicle: saline); 141 % of control (T/C endpoint: median survival time, dose: 48.0 mg/kg/injection, schedule: Q04DX003 (ip), vehicle: saline); 130 % of control (T/C endpoint: survival time, mean or median, dose: 2.5 mg/kg/injection, schedule: Q01DX015 (ip), vehicle: carboxymethylcellulose (CMC)); 125 % of control under setting [4]; 142 % of control (T/C endpoint: survival time, mean or median, dose: 10.0 mg/kg/injection, schedule: Q01DX015 (ip), vehicle: carboxymethylcellulose (CMC)).
As for `CC1CN=C(c2ccc(NC(=O)c3cccc(C(=O)Nc4ccc(C5=NCC(C)N5)cc4)c3)cc2)N1` (centres undefined), the T/C under setting [3] is 125 % of control.
